Reference: the supplement of paper PMC10849652
This is one part of the list.

By UniProt entry, the sequences of proteins in these tests, tags left out. Where a name states a change or a piece, a line headed by the entry shows the natural chain unless it says otherwise.
UniProt Q99622: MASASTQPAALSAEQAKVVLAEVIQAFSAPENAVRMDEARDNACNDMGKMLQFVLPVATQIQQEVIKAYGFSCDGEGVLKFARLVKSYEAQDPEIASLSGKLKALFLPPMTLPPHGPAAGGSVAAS
UniProt Q96LW7: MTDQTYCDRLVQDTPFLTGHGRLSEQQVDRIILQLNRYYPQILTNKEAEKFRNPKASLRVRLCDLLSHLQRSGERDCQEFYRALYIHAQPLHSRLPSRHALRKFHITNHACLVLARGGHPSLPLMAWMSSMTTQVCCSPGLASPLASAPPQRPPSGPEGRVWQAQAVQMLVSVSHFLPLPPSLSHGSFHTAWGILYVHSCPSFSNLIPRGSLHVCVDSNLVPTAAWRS
UniProt Q504U0: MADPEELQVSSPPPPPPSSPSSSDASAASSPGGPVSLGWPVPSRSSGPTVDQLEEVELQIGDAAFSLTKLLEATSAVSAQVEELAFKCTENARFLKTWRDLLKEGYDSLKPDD
UniProt Q7Z6I8: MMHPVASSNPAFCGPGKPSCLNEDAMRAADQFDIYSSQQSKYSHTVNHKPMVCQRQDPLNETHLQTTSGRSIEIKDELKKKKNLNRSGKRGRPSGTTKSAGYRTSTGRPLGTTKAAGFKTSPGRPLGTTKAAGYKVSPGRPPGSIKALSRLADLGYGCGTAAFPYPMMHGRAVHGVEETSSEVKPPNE
UniProt Q9BX69: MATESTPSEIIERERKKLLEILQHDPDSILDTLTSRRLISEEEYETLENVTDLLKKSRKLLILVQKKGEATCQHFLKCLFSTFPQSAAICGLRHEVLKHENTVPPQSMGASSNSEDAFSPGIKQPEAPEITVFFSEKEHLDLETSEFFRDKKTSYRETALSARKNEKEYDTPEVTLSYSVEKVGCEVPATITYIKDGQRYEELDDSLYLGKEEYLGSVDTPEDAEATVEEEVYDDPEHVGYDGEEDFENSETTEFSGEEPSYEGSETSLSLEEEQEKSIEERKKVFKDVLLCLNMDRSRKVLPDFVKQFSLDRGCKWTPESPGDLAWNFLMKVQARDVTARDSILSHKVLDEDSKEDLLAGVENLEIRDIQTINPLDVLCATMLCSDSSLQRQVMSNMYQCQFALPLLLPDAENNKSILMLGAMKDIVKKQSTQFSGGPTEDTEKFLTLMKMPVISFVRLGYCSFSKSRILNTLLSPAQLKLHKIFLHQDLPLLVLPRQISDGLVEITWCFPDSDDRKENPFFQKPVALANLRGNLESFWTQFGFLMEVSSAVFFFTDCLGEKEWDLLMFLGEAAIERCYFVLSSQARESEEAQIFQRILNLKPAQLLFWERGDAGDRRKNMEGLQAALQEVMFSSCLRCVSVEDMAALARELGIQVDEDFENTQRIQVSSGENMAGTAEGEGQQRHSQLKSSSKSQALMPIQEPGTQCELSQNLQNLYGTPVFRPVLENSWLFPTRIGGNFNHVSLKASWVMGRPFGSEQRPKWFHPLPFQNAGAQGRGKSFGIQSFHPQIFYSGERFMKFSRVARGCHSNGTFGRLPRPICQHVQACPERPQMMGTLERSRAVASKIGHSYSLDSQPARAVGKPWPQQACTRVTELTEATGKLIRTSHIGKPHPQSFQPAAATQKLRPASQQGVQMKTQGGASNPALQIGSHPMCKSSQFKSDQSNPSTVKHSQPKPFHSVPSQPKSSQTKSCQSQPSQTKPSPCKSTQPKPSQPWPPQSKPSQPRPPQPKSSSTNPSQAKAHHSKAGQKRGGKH
UniProt P0DMB2: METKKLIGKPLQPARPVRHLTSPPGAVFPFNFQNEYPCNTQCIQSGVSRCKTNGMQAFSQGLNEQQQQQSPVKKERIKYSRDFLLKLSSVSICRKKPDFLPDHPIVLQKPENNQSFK
UniProt Q9NWQ9: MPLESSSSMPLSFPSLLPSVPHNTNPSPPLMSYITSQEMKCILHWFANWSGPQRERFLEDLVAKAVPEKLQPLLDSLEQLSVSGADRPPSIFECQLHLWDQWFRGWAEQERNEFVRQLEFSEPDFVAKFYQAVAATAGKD
UniProt Q9NZP8: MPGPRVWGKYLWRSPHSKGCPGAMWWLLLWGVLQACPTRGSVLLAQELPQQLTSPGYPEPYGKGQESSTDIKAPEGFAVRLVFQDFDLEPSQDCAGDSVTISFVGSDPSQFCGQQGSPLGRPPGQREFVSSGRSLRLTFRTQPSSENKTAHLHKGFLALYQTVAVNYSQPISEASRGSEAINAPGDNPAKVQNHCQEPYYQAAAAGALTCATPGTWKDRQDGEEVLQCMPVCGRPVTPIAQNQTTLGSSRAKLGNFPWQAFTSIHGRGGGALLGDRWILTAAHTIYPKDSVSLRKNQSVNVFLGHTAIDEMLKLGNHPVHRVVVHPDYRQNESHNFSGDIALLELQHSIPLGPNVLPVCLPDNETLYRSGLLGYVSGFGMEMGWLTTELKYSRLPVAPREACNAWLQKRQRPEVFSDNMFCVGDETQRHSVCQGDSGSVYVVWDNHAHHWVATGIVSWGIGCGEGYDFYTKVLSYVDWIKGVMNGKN
UniProt P23280: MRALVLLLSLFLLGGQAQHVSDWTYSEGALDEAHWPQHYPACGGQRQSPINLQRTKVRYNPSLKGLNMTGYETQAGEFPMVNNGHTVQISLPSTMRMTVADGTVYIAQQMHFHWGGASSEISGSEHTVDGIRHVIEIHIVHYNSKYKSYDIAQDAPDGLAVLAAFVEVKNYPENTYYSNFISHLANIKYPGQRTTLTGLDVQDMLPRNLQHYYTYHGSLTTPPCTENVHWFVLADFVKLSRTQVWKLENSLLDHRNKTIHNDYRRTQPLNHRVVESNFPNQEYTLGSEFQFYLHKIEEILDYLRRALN
UniProt Q13137: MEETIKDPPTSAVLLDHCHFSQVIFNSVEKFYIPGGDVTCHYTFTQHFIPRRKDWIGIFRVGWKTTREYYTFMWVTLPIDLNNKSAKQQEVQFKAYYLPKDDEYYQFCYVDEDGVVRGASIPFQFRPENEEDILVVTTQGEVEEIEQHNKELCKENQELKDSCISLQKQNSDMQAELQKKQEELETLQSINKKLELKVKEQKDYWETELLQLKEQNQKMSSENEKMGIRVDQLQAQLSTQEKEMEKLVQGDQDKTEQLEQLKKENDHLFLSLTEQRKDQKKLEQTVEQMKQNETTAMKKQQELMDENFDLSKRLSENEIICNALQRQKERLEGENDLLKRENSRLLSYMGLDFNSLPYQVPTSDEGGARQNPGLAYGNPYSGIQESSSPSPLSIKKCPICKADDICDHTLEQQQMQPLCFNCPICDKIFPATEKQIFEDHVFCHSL
UniProt Q6ZRI6: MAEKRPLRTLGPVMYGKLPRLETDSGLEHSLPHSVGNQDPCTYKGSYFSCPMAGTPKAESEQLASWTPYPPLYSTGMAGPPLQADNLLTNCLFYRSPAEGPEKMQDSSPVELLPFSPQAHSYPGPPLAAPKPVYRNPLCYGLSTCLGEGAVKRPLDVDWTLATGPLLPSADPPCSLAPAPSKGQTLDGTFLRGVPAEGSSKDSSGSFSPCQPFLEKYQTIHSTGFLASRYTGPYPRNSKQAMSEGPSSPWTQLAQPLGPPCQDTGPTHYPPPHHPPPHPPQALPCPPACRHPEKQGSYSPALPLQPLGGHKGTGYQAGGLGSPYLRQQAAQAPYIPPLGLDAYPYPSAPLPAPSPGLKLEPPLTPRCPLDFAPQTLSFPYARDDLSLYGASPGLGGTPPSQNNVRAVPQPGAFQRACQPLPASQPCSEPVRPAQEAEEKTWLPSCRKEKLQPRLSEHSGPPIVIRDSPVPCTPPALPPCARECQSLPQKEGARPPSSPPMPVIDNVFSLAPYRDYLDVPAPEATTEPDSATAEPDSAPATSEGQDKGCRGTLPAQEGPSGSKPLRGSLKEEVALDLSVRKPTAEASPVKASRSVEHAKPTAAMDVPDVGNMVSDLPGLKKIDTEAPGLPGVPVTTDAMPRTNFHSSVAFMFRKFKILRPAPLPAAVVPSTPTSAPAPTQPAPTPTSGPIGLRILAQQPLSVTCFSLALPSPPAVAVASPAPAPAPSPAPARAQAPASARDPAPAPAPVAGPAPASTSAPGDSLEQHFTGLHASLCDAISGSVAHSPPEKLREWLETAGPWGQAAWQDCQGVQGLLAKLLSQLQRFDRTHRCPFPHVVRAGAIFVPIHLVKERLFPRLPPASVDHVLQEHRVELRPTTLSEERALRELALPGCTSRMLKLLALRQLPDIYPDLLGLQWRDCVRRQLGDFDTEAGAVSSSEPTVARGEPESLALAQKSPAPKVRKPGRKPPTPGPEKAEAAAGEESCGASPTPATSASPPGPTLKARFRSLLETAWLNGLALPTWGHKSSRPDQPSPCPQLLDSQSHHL
UniProt Q9BSF0: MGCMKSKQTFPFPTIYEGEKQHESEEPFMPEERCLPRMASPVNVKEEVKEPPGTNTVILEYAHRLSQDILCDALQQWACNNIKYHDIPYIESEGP
UniProt Q9BUW7: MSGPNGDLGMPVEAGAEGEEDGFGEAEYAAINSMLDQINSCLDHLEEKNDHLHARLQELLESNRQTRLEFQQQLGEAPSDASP
UniProt Q96MD7: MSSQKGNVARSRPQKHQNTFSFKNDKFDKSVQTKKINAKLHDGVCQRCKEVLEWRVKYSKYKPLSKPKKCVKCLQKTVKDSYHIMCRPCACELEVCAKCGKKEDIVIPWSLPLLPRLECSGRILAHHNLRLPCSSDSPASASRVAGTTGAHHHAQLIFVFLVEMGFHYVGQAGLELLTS
UniProt P00736: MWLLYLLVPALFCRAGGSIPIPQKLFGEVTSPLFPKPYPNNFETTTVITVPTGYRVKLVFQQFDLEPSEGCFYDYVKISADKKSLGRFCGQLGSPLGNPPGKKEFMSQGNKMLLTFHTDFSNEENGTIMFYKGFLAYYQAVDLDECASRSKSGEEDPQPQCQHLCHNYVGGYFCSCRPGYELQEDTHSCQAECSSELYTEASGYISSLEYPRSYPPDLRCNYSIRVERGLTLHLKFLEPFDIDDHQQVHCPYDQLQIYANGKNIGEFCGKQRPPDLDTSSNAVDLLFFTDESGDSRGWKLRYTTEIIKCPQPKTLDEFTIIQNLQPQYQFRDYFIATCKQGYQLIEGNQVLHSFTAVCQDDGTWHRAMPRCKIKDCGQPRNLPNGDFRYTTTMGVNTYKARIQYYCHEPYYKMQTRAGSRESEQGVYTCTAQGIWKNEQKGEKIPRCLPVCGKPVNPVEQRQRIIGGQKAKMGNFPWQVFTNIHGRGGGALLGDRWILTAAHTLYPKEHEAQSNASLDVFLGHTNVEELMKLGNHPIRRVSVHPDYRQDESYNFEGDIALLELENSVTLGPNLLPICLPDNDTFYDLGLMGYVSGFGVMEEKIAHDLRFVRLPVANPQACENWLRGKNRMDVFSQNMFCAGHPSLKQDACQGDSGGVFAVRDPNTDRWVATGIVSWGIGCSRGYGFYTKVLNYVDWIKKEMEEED
UniProt Q86VG3: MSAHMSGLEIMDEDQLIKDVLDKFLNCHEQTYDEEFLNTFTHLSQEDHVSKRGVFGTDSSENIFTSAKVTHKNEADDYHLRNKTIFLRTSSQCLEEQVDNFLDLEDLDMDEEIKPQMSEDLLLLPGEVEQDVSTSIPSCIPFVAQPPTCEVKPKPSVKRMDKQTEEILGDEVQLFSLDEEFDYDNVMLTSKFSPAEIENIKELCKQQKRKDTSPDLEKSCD
UniProt Q96HA4: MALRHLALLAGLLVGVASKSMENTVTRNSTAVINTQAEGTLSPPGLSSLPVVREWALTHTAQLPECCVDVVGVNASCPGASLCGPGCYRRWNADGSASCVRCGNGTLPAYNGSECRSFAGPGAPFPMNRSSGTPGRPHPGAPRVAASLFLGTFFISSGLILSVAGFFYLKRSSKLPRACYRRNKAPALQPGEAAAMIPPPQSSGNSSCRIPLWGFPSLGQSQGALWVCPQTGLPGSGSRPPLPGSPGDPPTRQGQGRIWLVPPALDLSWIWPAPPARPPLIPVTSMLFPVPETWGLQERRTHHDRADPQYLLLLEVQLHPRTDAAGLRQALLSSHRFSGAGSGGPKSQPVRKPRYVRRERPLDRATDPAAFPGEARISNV
UniProt Q01518, whole entry, looked up: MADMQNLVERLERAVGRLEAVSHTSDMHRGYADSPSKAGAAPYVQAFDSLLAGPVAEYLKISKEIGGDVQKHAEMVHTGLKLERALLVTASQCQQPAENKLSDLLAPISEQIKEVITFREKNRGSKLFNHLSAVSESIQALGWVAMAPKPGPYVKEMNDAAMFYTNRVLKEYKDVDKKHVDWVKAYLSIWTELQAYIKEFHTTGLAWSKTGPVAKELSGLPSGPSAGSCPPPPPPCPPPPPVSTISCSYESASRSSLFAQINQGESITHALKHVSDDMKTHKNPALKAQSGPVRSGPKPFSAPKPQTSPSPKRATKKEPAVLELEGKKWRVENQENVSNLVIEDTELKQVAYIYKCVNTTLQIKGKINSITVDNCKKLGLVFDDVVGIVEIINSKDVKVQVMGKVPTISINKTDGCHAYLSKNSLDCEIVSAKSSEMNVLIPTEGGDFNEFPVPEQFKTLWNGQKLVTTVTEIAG

Key:
Test in all cases: log2 fold change, soluble protein after heating vs DMSO (PISA); higher = thermal stabilisation; K562 lysate, 10 uM; active = over 0.2 and 3.5 SD of the protein, either way, in both replicates (recomputed)
[1] = compound: C[C@@H](Oc1cc(-c2cnn(C3CCNCC3)c2)cnc1N)c1c(Cl)ccc(F)c1Cl [crizotinib]
How it was run: (§1)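 Thermal stability, expressed as log-two fold change relative to solvent controls, is given from duplicates. Crude K562 extract in PBS pH 7.4 with 1 mM MgCl2, at 1 mg/mL protein, was treated with 10 μM compound for 30 min and heated in aliquots for 3 min across 48°C-58°C. After pooling, adjustment to 0.5% NP-40 at 4°C and centrifugation at 21,000xg for 90 min, supernatant protein was measured by TMTpro 16plex LC-MS/MS with channel sums equalised.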

[2] = compound: C[C@H](Nc1ncnc2nc[nH]c12)c1cc2cccc(Cl)c2c(=O)n1-c1ccccc1 [duvelisib]
How it was run: as §1

[3] = compound: Cc1ccc(-n2nc(C(C)(C)C)cc2NC(=O)Nc2ccc(OCCN3CCOCC3)c3ccccc23)cc1 [doramapimod]
How it was run: as §1

[4] = compound: Cc1cn(-c2cc(NC(=O)c3ccc(C)c(Nc4nccc(-c5cccnc5)n4)c3)cc(C(F)(F)F)c2)cn1 [nilotinib]
How it was run: as §1

[5] = compound: Cc1nc(Nc2n[nH]c3c2CN(C(=O)N[C@H](CN(C)C)c2ccccc2)C3(C)C)c2sccc2n1
How it was run: as §1

[6] = compound: Cc1nc(Nc2ncc(C(=O)Nc3c(C)cccc3Cl)s2)cc(N2CCN(CCO)CC2)n1 [dasatinib]
How it was run: as §1

[7] = compound: Cc1ncc(-c2ccnc(Nc3ccc(S(C)(=O)=O)cc3)n2)n1C(C)C
How it was run: as §1

[8] = compound: Cn1cc(-c2ccc3c(c2)CCN3C(=O)Cc2cccc(C(F)(F)F)c2)c2c(N)ncnc21
How it was run: as §1

[9] = compound: Cn1cc(CNCC2CCN(c3ncc(C(=O)NO)cn3)CC2)c2ccccc21 [quisinostat]
How it was run: as §1

[10] = compound: Cn1cncc1[C@@](N)(c1ccc(Cl)cc1)c1ccc2c(c1)c(-c1cccc(Cl)c1)cc(=O)n2C [tipifarnib]
How it was run: as §1

[11] = compound: NC(=O)Nc1cc(-c2cccc(F)c2)sc1C(=O)N[C@H]1CCCNC1
How it was run: as §1

[12] = compound: NC1(c2ccc(-c3nc4ccn5c(=O)[nH]nc5c4cc3-c3ccccc3)cc2)CCC1
How it was run: as §1

[13] = compound: C[C@H](C1=CC=C(C=C1)C(=O)NC2=C3C=CNC3=NC=C2)N
How it was run: as §1

[14] = compound: Cc1cc(Nc2cc(CN3CCOCC3)c3nc(C)c(Cc4ccc(Cl)cc4F)n3n2)n[nH]1 [gandotinib]
How it was run: as §1

[15] = compound: Cc1cc(Nc2cc(N3CCN(C)CC3)nc(Sc3ccc(NC(=O)C4CC4)cc3)n2)n[nH]1 [tozasertib]
How it was run: as §1

[16] = compound: Cc1cccc(CC(=O)N2CCc3c2ccc(-c2cn(C)c4ncnc(N)c24)c3F)n1
How it was run: as §1

[17] = compound: CS(=O)(=O)N1CCN(Cc2cc3nc(-c4cccc5[nH]ncc45)nc(N4CCOCC4)c3s2)CC1 [pictilisib]
How it was run: as §1

[18] = compound: Cc1ccc(NC(=O)c2ccc(CN3CC[C@H](N(C)C)C3)c(C(F)(F)F)c2)cc1Nc1nccc(-c2cncnc2)n1 [bafetinib]
How it was run: as §1

[19] = compound: CS(=O)(=O)CCNCc1ccc(-c2ccc3ncnc(Nc4ccc(OCc5cccc(F)c5)c(Cl)c4)c3c2)o1 [lapatinib]
How it was run: as §1

[20] = compound: NC(=O)c1cnc(N[C@@H]2CCCC[C@@H]2N)nc1Nc1cccc(-n2nccn2)c1
How it was run: as §1

Measured: log2 fold change

C12orf57 (UniProt Q99622)
inactive: [1] 0.076 | [2] 0.101 | [3] 0.04 | [4] 0.209 | [5] 0.051 | [6] -0.234 | [7] -0.04 | [8] 0.102 | [9] -0.232 | [10] 0.231 | [11] 0.118 | [12] -0.187

CARD19 (UniProt Q96LW7)
inactive: [1] -0.022 | [3] -0.021 | [9] -0.091 | [11] 0.11

C17orf53 (UniProt Q8N3J3)
inactive: [1] -0.056 | [2] 0.221 | [3] -0.014 | [6] -0.075 | [8] 0.047 | [9] -0.079 | [11] 0.059 | [12] 0.068

CA1 (UniProt E5RIF9)
inactive: [13] -0.099 | [14] -0.011 | [15] -0.098 | [16] -0.004

C4orf46 (UniProt Q504U0)
inactive: [2] -0.189 | [6] 0.047 | [8] 0.089 | [12] 0.042

C5orf24 (UniProt Q7Z6I8)
inactive: [1] -0.015 | [3] -0.013 | [9] 0.046 | [11] 0.034

CARD6 (UniProt Q9BX69)
inactive: [1] -0.421 | [2] -0.053 | [3] 0.134 | [4] 0.067 | [5] 0.162 | [6] 0.05 | [7] 0.165 | [8] 0.006 | [9] -0.167 | [10] -0.03 | [11] 0.067

C8orf88 (UniProt P0DMB2)
inactive: [17] 0.028 | [1] 0.038 | [13] 0.054 | [2] 0.058 | [14] -0.017 | [3] -0.004 | [18] -0.016 | [16] -0.095 | [6] 0.07 | [8] -0.134 | [9] -0.042 | [11] -0.011 | [12] 0.084

C14orf119 (UniProt Q9NWQ9)
inactive: [1] -0.126 | [13] 0.039 | [14] -0.163 | [3] 0.015 | [16] 0.055 | [9] 0.016 | [11] -0.057

CAMSAP2 (UniProt Q08AD1)
inactive: [1] -0.012 | [13] 0.043 | [2] 0.065 | [14] -0.016 | [15] 0.081 | [3] 0.065 | [16] 0.06 | [4] 0.156 | [5] -0.023 | [6] -0.072 | [7] 0.059 | [8] -0.03 | [9] -0.138 | [10] -0.374 | [11] 0.011 | [12] -0.148

C5orf34 (UniProt Q96MH7)
inactive: [2] 0.027 | [15] 0.049 | [6] -0.041 | [8] -0.058 | [12] 0.13

C1RL (UniProt Q9NZP8)
inactive: [13] -0.067 | [14] -0.032 | [15] -0.107 | [16] -0.051

CAD (UniProt H7BZB3)
inactive: [13] 0.069 | [14] 0.036 | [15] -0.062 | [16] 0.057
active: [12] 0.551

CA6 (UniProt P23280)
inactive: [12] 2.17

CALCOCO2 isoform 5 (UniProt Q13137)
inactive: [13] -0.509 | [14] 0.102 | [16] 0.273 | [4] -0.158 | [5] 0.238 | [7] 0.105 | [10] -0.052

C15orf39 (UniProt Q6ZRI6)
inactive: [17] -0.04 | [1] 0.043 | [13] 0.025 | [2] -0.049 | [14] -0.076 | [15] 0.097 | [3] 0 | [18] 0.19 | [16] -0.055 | [4] 0.074 | [5] -0.006 | [6] -0.059 | [7] 0.019 | [8] 0.034 | [9] -0.017 | [10] -0.015 | [11] 0.053 | [12] 0.184

C2orf88 (UniProt Q9BSF0)
inactive: [1] 0.051 | [13] 0.051 | [14] -0.037 | [3] -0.069 | [16] -0.218 | [9] 0.018 | [11] -0.058

C9orf16 (UniProt Q9BUW7)
inactive: [1] 0.041 | [13] 0.105 | [2] -0.048 | [14] 0.001 | [15] -0.197 | [3] -0.035 | [16] -0.192 | [6] 0.088 | [8] 0.038 | [9] 0.172 | [11] -0.126 | [12] 0.114

C9orf85 isoform 1 (UniProt Q96MD7)
inactive: [17] 0.113 | [13] 0.004 | [2] 0.017 | [14] -0.001 | [18] -0.017 | [16] -0.003 | [4] -0.016 | [5] -0.002 | [6] -0.012 | [7] -0.06 | [8] 0.039 | [10] -0.009

2 records picked at random from the list so far:
CALCOCO2 isoform 5 (UniProt Q13137)
inactive: [13] -0.509 | [14] 0.102 | [16] 0.273 | [4] -0.158 | [5] 0.238 | [7] 0.105 | [10] -0.052

C2orf88 (UniProt Q9BSF0)
inactive: [1] 0.051 | [13] 0.051 | [14] -0.037 | [3] -0.069 | [16] -0.218 | [9] 0.018 | [11] -0.058

Later entries

C1R (UniProt P00736)
inactive: [19] 0 | [20] 0.076

C11orf74 (UniProt Q86VG3)
inactive: [1] 0.011 | [2] -0.031 | [15] 0.038 | [3] 0.109 | [6] 0.072 | [8] -0.087 | [9] -0.015 | [11] -0.055 | [12] 0.119

C1orf159 isoform 4 (UniProt Q96HA4)
inactive: [13] 0.005 | [2] 0.272 | [14] 0.036 | [15] -0.059 | [16] -0.041 | [6] 0.071 | [8] -0.12

CAP1 isoform 2 (UniProt Q01518)
inactive: [17] -0.018 | [1] -0.056 | [13] -0.03 | [2] -0.012 | [14] 0.075 | [3] 0.072 | [18] -0.027 | [16] -0.087 | [6] -0.009 | [8] -0.092 | [9] -0.154 | [11] 0.063 | [12] -0.002

C2CD2 (UniProt Q9Y426)
inactive: [17] -0.061 | [1] -0.087 | [13] 0.012 | [2] 0.098 | [14] -0.044 | [15] 0.131 | [3] 0.17 | [18] -0.016 | [16] 0.009 | [6] -0.202 | [8] 0.162 | [9] -0.266 | [11] 0.034 | [12] 0.039
